For three molecules, binding results are on record in patent US20200385479A1.

Results are given in words; binding and its absence hold for the method and conditions named. Some results given as binding are weak or reduced against the parent protein; the word gives no strength.

The target of experiment [1] is cynomolgus monkey CD137 expressed on CHO cells (cynomolgus monkey). Put plainly: FACS on CHO cells over-expressing cynomolgus monkey CD137.
Experiment [2] has the same target. Put plainly: FACS on CHO cells over-expressing cynomolgus monkey CD137, goat F(ab')2 anti-human IgG-Fc PE.

B1: LYV390 (30C11-IgG4) (antibody, V domains shown)
VH: QIQLVQSGPELKKPGESVKISCKASGYTFTDYAMHWVKQAPGKALKWMGLINTYTGKPTYVDDLKGRFVFSLEASASTAKLQISNLKNEDTAIYFCARYYHDGTYYGWFANWGQGTLVTVSS
VL: DTVLTQSPALAVSPGERVTVSCGATESVSTALNWYQQKPGQQPRLLIYGASNLESGVPARFSGSGSGTDFTLSIDPVEADDTATYFCQQTWNDPLTFGSGTKLEIKR
On to B1, for which the binding result in experiment [1] and in experiment [2] was “binds” each time.

B2: LYV371 (11E10-IgG4) (antibody, V domains shown)
VH: QVQLQQSGAELVRPGASVTLSCKASGYTFAGFEMHWIKQTPVHGLGWIGAIDPKTGGTDYNQKFKDKALLTADKSSNTAYMELRSLTSEDSAVYYCTRDLGYFDVWGTGTTVTVSS
VL: DIQMTQTTSSLSASLGDRVTISCRASQDIRSNLNWYQQKPDGTVKLLIYYTSRLHSGVPSRFSGSGSGTDYSLTISNLEQEDIATYFCQQSEKLPRTFGGGTKLEIRR
Regarding B2, the binding entry in experiment [1] and in experiment [2] was “binds” in each case.

B3: LYV402 (26B3-IgG4) (antibody, V domains shown)
VH: EVKLLESGGGLVQPGGSLKLSCAASGFDFSRYWMSWVRQAPGKGLEWIGEINPDSNPINYTPSLKDKFIISRDNAKNTLYLQMSKVRSEDTALYYCARDGSSSRYFDVWGAGTTVTVSS
VL: DIVMTQSPATLSVTPGDRVSLSCRASQSISDYLHWYQQKSHESPRLLIKYVSQSISGIPSRFSGSGSGSDFTLSINSVEPEDVGVYYCQNGHSFPPTFGGGTKLEIKR
Consider B3, for which the binding entry in experiment [1] and in experiment [2] was “binds” throughout.
